Results as given in PubChem BioAssay AID1439 (NMMLSC, 2008).
The whole screen tested about 220,000 compounds, of which about 770 (0.35%) were called active. The inconclusive results got no clear call from the source; some entries with a clear call stand among them for comparison. No stated cut-off is given here; in the data, active means binding response below about 49% or above about 150%; inconclusive means no clear call, values can overlap the other calls; inactive means in between.

Chains of the proteins cited; added tags and fusions are not shown.
UniProt P09471, whole entry, looked up: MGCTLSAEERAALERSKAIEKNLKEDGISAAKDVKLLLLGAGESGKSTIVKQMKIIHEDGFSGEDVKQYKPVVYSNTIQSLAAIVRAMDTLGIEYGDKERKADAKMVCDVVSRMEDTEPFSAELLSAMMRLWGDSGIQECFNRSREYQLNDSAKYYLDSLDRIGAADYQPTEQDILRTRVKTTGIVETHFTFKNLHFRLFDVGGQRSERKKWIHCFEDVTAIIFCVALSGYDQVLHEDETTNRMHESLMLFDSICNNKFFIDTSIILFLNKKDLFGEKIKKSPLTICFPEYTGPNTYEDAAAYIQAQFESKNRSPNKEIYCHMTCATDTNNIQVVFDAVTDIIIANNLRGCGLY

Biological target: Guanine nucleotide-binding protein G(o) subunit alpha (Homo sapiens) (UniProt P09471)
Assay: RGS7-Galphao binding modulators, primary screen, biochemical, multiplexed bead flow cytometry (AID 1439);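 further: fluorescent Galphao held in activated GDP-AlF4 state binding bead-coupled RGS7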
Settings: at 10 µM, actives lie on both sides

SMILES	binding response (% of control)
CC(=O)N1CC[n+]2c(-c3ccc([N+](=O)[O-])cc3)csc21	inconclusive: 102%
Cc1nc(N2CCOCC2)c(C#N)c(C)c1Br	inactive: 102%
COc1ccc(N=c2scc(C)n2CCCN2CCCC2=O)cc1	inconclusive: 93.2%
O=[N+]([O-])c1cc(Cl)cc(/C=N/Nc2nc3ccccc3s2)c1O	inactive: 102%
Nc1cccc(Oc2c(F)c(F)c(Oc3cccc(N)c3)c(F)c2F)c1	inconclusive: 5.31%
C=CCSc1nc(C)cc(C(=O)OCC)c1C#N	inconclusive: 162%
Cc1cc(C)cc(NC(=O)c2ccc(NC(=O)C3C4CC5OC(=O)C3C5C4)cc2)c1 (stereo not drawn)	inconclusive: 124%
CCC(C)C(=O)Nc1cc(Cl)ccc1C(=O)O (stereo not drawn)	inconclusive: 111%
CN1C(=S)SC2CS(=O)(=O)CC21C (stereo not drawn)	inconclusive: 120%
CCCCOc1ccc(-c2ncc(N)cn2)cc1	inconclusive: 101%
CCCNC(=O)CN1C(=O)NC(CCSC)C1=O (stereo not drawn)	inconclusive: 125%
CCOC(=O)C/C(C)=N/NC(=O)CNc1cccc(Cl)c1C	inconclusive: 96.8%
COc1ccc(OCCC(=O)c2ccc(OC)cc2)cc1	inconclusive: 84.2%
O=C(Nc1cccc(-c2nnc(-c3ccco3)o2)c1)C(c1ccccc1)c1ccccc1	inactive: 99.7%
CCN(CC)S(=O)(=O)c1ccc(OC)c(NC(=O)C(Cc2ccccc2)N2C(=O)c3ccccc3C2=O)c1 (stereo not drawn)	inactive: 87%
COc1ccccc1N1CCN(C(=O)c2ccc(Cn3c(=O)[nH]c4ccsc4c3=O)cc2)CC1	inconclusive: 104%
Cc1cc(/C=C2\SC(=S)NC2=O)c(C)n1-c1ccc(O)cc1	inconclusive: 68.7%
O=C(O)c1ccc(CSc2nnc(-c3ccccc3)n2-c2ccccc2)cc1	inconclusive: 55.4%
CCN(CC)CCNc1ccc2nnc(CCNS(=O)(=O)c3ccc(C)cc3)n2n1	active: 16.4%
Cc1ccccc1CSc1nnc([C@@H]2CCCN2)o1	inconclusive: 112%
CC(=O)Nc1ccc(C(=O)Nc2nc(-c3cccnc3)cs2)cc1	inconclusive: 59.8%
C=CCN1C(=O)SC(Cc2cccc(OC)c2O)C1=O (stereo not drawn)	inconclusive: 102%
CC(C)Sc1n[nH]c(=O)n1-c1ccccc1	inconclusive: 86.7%
COc1cc(NC(=O)c2ccccc2F)ccc1NC(=O)c1ccccc1Cl	inconclusive: 105%

Reformatted in CSV form: entries from further up.
SMILES,binding response (% of control)
C=CCSc1nc(C)cc(C(=O)OCC)c1C#N,inconclusive: 162%
Cc1cc(C)cc(NC(=O)c2ccc(NC(=O)C3C4CC5OC(=O)C3C5C4)cc2)c1 (stereo not drawn),inconclusive: 124%
CCC(C)C(=O)Nc1cc(Cl)ccc1C(=O)O (stereo not drawn),inconclusive: 111%
CN1C(=S)SC2CS(=O)(=O)CC21C (stereo not drawn),inconclusive: 120%
CCCCOc1ccc(-c2ncc(N)cn2)cc1,inconclusive: 101%
CCCNC(=O)CN1C(=O)NC(CCSC)C1=O (stereo not drawn),inconclusive: 125%
CCOC(=O)C/C(C)=N/NC(=O)CNc1cccc(Cl)c1C,inconclusive: 96.8%
COc1ccc(OCCC(=O)c2ccc(OC)cc2)cc1,inconclusive: 84.2%
O=C(Nc1cccc(-c2nnc(-c3ccco3)o2)c1)C(c1ccccc1)c1ccccc1,inactive: 99.7%
CCN(CC)S(=O)(=O)c1ccc(OC)c(NC(=O)C(Cc2ccccc2)N2C(=O)c3ccccc3C2=O)c1 (stereo not drawn),inactive: 87%
COc1ccccc1N1CCN(C(=O)c2ccc(Cn3c(=O)[nH]c4ccsc4c3=O)cc2)CC1,inconclusive: 104%
Cc1cc(/C=C2\SC(=S)NC2=O)c(C)n1-c1ccc(O)cc1,inconclusive: 68.7%
O=C(O)c1ccc(CSc2nnc(-c3ccccc3)n2-c2ccccc2)cc1,inconclusive: 55.4%
CCN(CC)CCNc1ccc2nnc(CCNS(=O)(=O)c3ccc(C)cc3)n2n1,active: 16.4%
Cc1ccccc1CSc1nnc([C@@H]2CCCN2)o1,inconclusive: 112%
CC(=O)Nc1ccc(C(=O)Nc2nc(-c3cccnc3)cs2)cc1,inconclusive: 59.8%
C=CCN1C(=O)SC(Cc2cccc(OC)c2O)C1=O (stereo not drawn),inconclusive: 102%
CC(C)Sc1n[nH]c(=O)n1-c1ccccc1,inconclusive: 86.7%

Additional structures follow:

SMILES	binding response (% of control)
N#CCC(=O)Nc1ccc(C(=O)Nc2cccc(S(N)(=O)=O)c2)cc1	inconclusive: 118%
Cc1nc(N)sc1C(=O)N/N=C/c1ccc([N+](=O)[O-])cc1	inconclusive: 95%
COc1ccc(-n2c(=S)[nH]c3cc(C(=O)NCc4ccco4)ccc3c2=O)cc1OC	inconclusive: 114%
CCc1ccc(OCC(=O)NNC(=O)c2nn(CC)c(=O)c3ccccc23)cc1	inconclusive: 103%
O=C(Nc1ccc(Cl)cc1)c1ccc(-c2ccccn2)s1	inconclusive: 61.8%
CC(C)CC(=O)NC(=S)Nc1ccc(N2CCCC2)c(Cl)c1	inconclusive: 395%
Cc1ccc(S(=O)(=O)N2CCN(S(=O)(=O)c3ccc4c(c3)OCCO4)CC2)cc1	inactive: 52.2%
Cc1nn(CC(=O)NN)c(C)c1Br	inconclusive: 82.9%
NS(=O)(=O)c1cc(C(=O)N=Nc2c(O)[nH]c3ccccc23)ccc1Cl	inconclusive: 55.2%
CN(CC(=O)Nc1cc(S(=O)(=O)N2CCCC2)ccc1Cl)Cc1cccs1	inconclusive: 109%
CCOC(=O)CC1C(=O)NCCN1Cc1cccs1 (stereo not drawn)	inconclusive: 79.3%
c1csc(-c2nc(-c3ccc(-c4ccon4)s3)no2)c1	inconclusive: 115%
CCOC(=O)c1c(NC(=O)C2CCCO2)sc(C(=O)OC(C)(C)C)c1C (stereo not drawn)	inactive: 116%
CC1(C)Cc2c(c(-c3ccco3)nc3sc4c(NCCCO)ncnc4c23)CO1	inconclusive: 88.1%
Cn1nc(C(C)(C)C)cc1NC(=O)Nc1ccc(Cl)cc1	inconclusive: -1.46%
CCCCNc1c([N+](=O)[O-])ncn1C	inconclusive: 31.4%
COc1cccc(-c2cnc(NCc3cc(Cl)ccc3O)n2C)c1	active: 160% [activator]
Cc1cc(=O)oc(C)c1C(=O)Nc1cccnc1Cl	inconclusive: 104%
CC1CCCCN1C(=O)COc1ccc2ccc(=O)oc2c1 (stereo not drawn)	inconclusive: 94.8%
CCCOC(=O)Nc1ccc(S(=O)(=O)Nc2ncccn2)cc1	inconclusive: 97.3%
C/C(O)=c1/cnc2nc3ccccc3n2c1=O	inconclusive: 85.7%
O=c1oc2cc([N+](=O)[O-])ccc2nc1/C=C(O)/C=C/c1ccccc1	inconclusive: 97.2%
CCCNC(=O)CCCCn1c(=S)[nH]c2c([nH]c3ccc(OC)cc32)c1=O	inconclusive: 93.8%
COc1cccc(NC(=O)Cn2cnc3sc(C)c(S(=O)(=O)N4CCCCC4)c3c2=O)c1	inactive: 99.5%

SMILES	binding response (% of control)
Cc1cc(OCC(=O)c2ccc(C(F)(F)F)cc2)n2cnnc2n1	inconclusive: 119%
Cn1c2ccccc2c2cnn(CC(=O)Nc3ccc(F)cc3F)c(=O)c21	inconclusive: 88.1%
C=CCNC(=O)c1onc(CSc2ccncc2)c1C(=O)NCC=C	inconclusive: 121%
O=C(O)CCc1cccnc1	inconclusive: 141%
CCn1c(O)c(C=NCc2ccccc2)sc1=S	inconclusive: 147%
O=C(O)CSc1cc(NS(=O)(=O)c2cccc([N+](=O)[O-])c2)c2ccccc2c1O	inconclusive: -39.4%
Nc1c(C(=O)NCc2ccco2)sc2nc(N3CCOCC3)c3c(c12)CCCC3	inactive: 114%
Cc1cc(C)c(S(=O)(=O)Nc2ccc(O)cc2)c(C)c1	inactive: 118%
O=C(Nc1nc2cc3c(cc2s1)OCO3)c1ccco1	inconclusive: 81.8%
CC(C)N(C(=O)c1ccc(-c2ccccc2F)cc1)C(C)C	inconclusive: 97.3%
CC(C)(C)c1cc(C(=O)Nc2ccccc2)ccn1	inactive: 94.9%
COc1cc(SC)ccc1C(=O)NCCN1CCOCC1	inconclusive: 99.7%
Nc1ccccc1C(=O)Nc1ccc(Cl)cc1Cl	inconclusive: 68%
COCCOC(=O)c1c(C)oc2ccc(NS(=O)(=O)c3ccc(C)cc3)cc12	inconclusive: 115%
O=C(Oc1ccccc1N1CCOCC1)c1sccc1Br	inconclusive: 89.5%
N#Cc1cc(-c2ccccc2)[nH]c1-c1nccc2ccccc12	inconclusive: 141%
CSc1nccc(-c2sc(SC)c(C#N)c2-c2ccccc2)n1	inconclusive: 147%
N/C(=N\OC(=O)c1cc([N+](=O)[O-])ccc1Cl)c1cccnc1	inconclusive: 102%
COc1ccc(NC(=O)CSc2ccc(F)cc2)cc1S(=O)(=O)N1CCCCC1	inactive: 106%
COc1ccc(/C=C/c2c([N+](=O)[O-])c(=O)n(C)c(=O)n2C)c(OC)c1OC	inconclusive: 159%
O=C(OCC(=O)N1CCc2ccccc21)c1nc(Cl)ccc1Cl	inconclusive: 107%
O=[N+]([O-])c1ccc(-n2ccnc2)cc1	inconclusive: 92.4%
CCN(CC)S(=O)(=O)c1cccc(C(=O)N[C@H](C(=O)NNC(=O)c2ccccc2)C(C)C)c1	inconclusive: 295%
O=C(c1ccc(Cn2ccc([N+](=O)[O-])n2)cc1)N1CCN(Cc2ccccc2)CC1	inconclusive: 113%

SMILES	binding response (% of control)
O=C(O)c1nccnc1C(=O)Nc1ccccc1-c1ccccc1	inconclusive: 107%
C=CCNC(=S)/N=c1/ccccn1CC	inconclusive: 99%
Cc1ccc(CN2C(=O)CSC2c2cccnc2)cc1 (stereo not drawn)	inconclusive: 104%
Cc1nc(C(=O)NNC(=O)c2c(-c3c(Cl)cccc3Cl)noc2C)cs1	inconclusive: 94%
O=C(CSc1nnc2ccccn12)Nc1ccc(S(=O)(=O)N2CCOCC2)cc1	inactive: 98.5%
O=C(O)c1ccc2c(=O)n3cc(C(=O)c4ccccc4O)cc(Cl)c3nc2c1	inconclusive: 87.2%
Cc1cc(C)c(C)c(S(=O)(=O)NC2CCN(Cc3ccccc3)CC2)c1C	inconclusive: 99.9%
CN=c1scc(-c2c[nH]c3ccccc23)n1C	inactive: 103%
Cc1cn2c(nc1=O)OC1CC2OC1CO (stereo not drawn)	inconclusive: 99.6%
C/C(=N\NC(=O)c1cc(-c2cccc([N+](=O)[O-])c2)n[nH]1)c1ccc(F)cc1	inconclusive: 196%
C(=N\Nc1nc(-c2cccnc2)nc2ccccc12)/c1ccccc1	inconclusive: 128%
COc1ccc(C2c3ccsc3CCN2C(C)=O)cc1 (stereo not drawn)	inconclusive: 90.9%
Clc1ccccc1-c1nc(-c2ccncc2)no1	inconclusive: 44.6%
CC(=C1C(=O)c2ccccc2C1=O)N1CCN(c2ccc(F)cc2)CC1	inconclusive: 59.2%
COC(=O)C1CSC(C(=O)OC)N1C(=O)CN1CCN(c2ccc(OC)cc2)CC1 (stereo not drawn)	inconclusive: 111%
CC(C)Cc1ccc(/C=C/C(=O)NC2CC2)cc1	inactive: 101%
O=C1CN(C(=O)COC(=O)c2ccccc2O)c2ccccc2N1	inconclusive: 124%
COc1cccc(OC)c1OCCCOc1cccc2cccnc12	inconclusive: 129%
O=C(NC(=S)NNC(=O)[C@H]1C[C@@H]1c1ccccc1)c1ccc(F)cc1	inconclusive: -2.78%
CC1(C)CC[C@]2(C(=O)O)CC[C@]3(C)C(=CC[C@@H]4[C@@]5(C)CC[C@H](O)C(C)(C)[C@@H]5CC[C@]43C)[C@@H]2C1	inconclusive: 119%
Cn1cnnc1SCc1ccc(C(=O)NN)cc1	inconclusive: 107%
